# The list shows a part of the results.
# B1: BT4246 (Bacteroides thetaiotaomicron), Q89ZX5 (protein)
# chain: MGSSHHHHHHENLYFQGHMASDYLDVVPPEQPNIDDAMSSPTRALGFLYSCYGGVSTDLPSAYLGEINSTTDEYVLPYSWNTDGYWGAYAFNTASSTNQDWLWGTTYQYIGQCYLFLQKLENAGSDIASDAEKEQWRAECQFLVAYYHFATLRRYGPIPITDSYIPMDTPTSEYNGRFHFDYCVDWIANQLDEAAKVLPANRTVTNEWGRATSTIAKAVKARLLLYAASPLWNGSFPYPNWQNENFETPGYGKALVSNTYDKSKWERALAACQEALTLATTSGDRELYDDDEYYSRQSLNLPFVPGVADVEDNKEFLKNVMKMRYAVSTRESEGNKEIIWGLSNQFDFYSRYPLRILKKSDGTWHAGYSGVSPTLYTFEHFYTANGKLPEKDLDFTPSSEWFESAGISSREDIIKLNVGREPRFYAWMAFDGGDYGTKFAAGSPLKLEMRNSEMHGYNPSLFNRDHSVTGFLTQKFVDPVTEFYTAGGSTSGTSAPTILFRLAELYLNVAECHAALGNTQEAIDALNPVRERAGIPKLTLADITNNMTIKDWVHNERFVELWNEGHRFFDVRRWAEGAKYFGANKREGLNAEVQSPTFEEFNKRTTVDAPYVWENRMYLNPVFYNEVYKNPQMVQAPGY
# What was measured:
# Test in all cases: glycan array binding signal (z-score within array); higher = stronger binding
# Conditions in all cases: glycan notation: IUPAC condensed, linker removed
# Fuc(a1-2)Gal = target: Fuc(a1-2)Gal
# Outline: (§1)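 Glycan array data were curated from 3228 arrays in the Consortium for Functional Glycomics database and kept only where the protein sequence was available. Glycan names were converted to IUPAC-condensed notation, and columns mapping to the same glycan were averaged. The binding signal is a within-array Z-score, averaged across arrays of the same protein sequence at different concentrations or buffers and across linkers. Negative Z-scores can be read as non-binding.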
# Fuc(a1-2)Gal(b1-3)GalNAc = target: Fuc(a1-2)Gal(b1-3)GalNAc
# Outline: as §1
# [1] = target: Fuc(a1-2)Gal(b1-3)GalNAc(a1-3)[Fuc(a1-2)]Gal(b1-4)Glc
# Outline: as §1
# [2] = target: Fuc(a1-2)Gal(b1-3)GalNAc(a1-3)[Fuc(a1-2)]Gal(b1-4)GlcNAc
# Outline: as §1
# [3] = target: Fuc(a1-2)Gal(b1-3)GalNAc(b1-3)Gal
# Outline: as §1
# [4] = target: Fuc(a1-2)Gal(b1-3)GalNAc(b1-3)Gal(a1-4)Gal(b1-4)Glc
# Outline: as §1
# [5] = target: Fuc(a1-2)Gal(b1-3)GalNAc(b1-4)[Neu5Ac(a2-3)]Gal(b1-4)Glc
# Outline: as §1
# Fuc(a1-2)Gal(b1-3)GlcNAc = target: Fuc(a1-2)Gal(b1-3)GlcNAc
# Outline: as §1
# [6] = target: Fuc(a1-2)Gal(b1-3)GlcNAc(b1-2)Man(a1-3)[Fuc(a1-2)Gal(b1-3)GlcNAc(b1-2)Man(a1-6)]Man(b1-4)GlcNAc(b1-4)GlcNAc
# Outline: as §1
# [7] = target: Fuc(a1-2)Gal(b1-3)GlcNAc(b1-2)Man(a1-3)[Fuc(a1-2)Gal(b1-3)GlcNAc(b1-2)Man(a1-6)]Man(b1-4)GlcNAc(b1-4)[Fuc(a1-6)]GlcNAc
# Outline: as §1
# [8] = target: Fuc(a1-2)Gal(b1-3)GlcNAc(b1-3)Gal(b1-4)Glc
# Outline: as §1
# [9] = target: Fuc(a1-2)Gal(b1-3)GlcNAc(b1-3)GalNAc
# Outline: as §1
# [10] = target: Fuc(a1-2)Gal(b1-3)GlcNAc(b1-3)[Fuc(a1-2)Gal(b1-3)GlcNAc(b1-6)]GalNAc
# Outline: as §1
# [11] = target: Fuc(a1-2)Gal(b1-3)GlcNAc(b1-3)[Gal(b1-4)GlcNAc(b1-6)]Gal(b1-4)Glc
# Outline: as §1
# [12] = target: Fuc(a1-2)Gal(b1-3)GlcNAc(b1-3)[Neu5Ac(a2-6)Gal(b1-4)GlcNAc(b1-6)]Gal(b1-4)Glc
# Outline: as §1
# [13] = target: Fuc(a1-2)Gal(b1-3)GlcNAc6S
# Outline: as §1
# [14] = target: Fuc(a1-2)Gal(b1-3)[Fuc(a1-4)]GlcNAc
# Outline: as §1
# [15] = target: Fuc(a1-2)Gal(b1-3)[Fuc(a1-4)]GlcNAc(b1-2)Man(a1-3)[Fuc(a1-2)Gal(b1-3)[Fuc(a1-4)]GlcNAc(b1-2)Man(a1-3)]Man(b1-4)GlcNAc(b1-4)GlcNAc
# Outline: as §1
# [16] = target: Fuc(a1-2)Gal(b1-3)[Fuc(a1-4)]GlcNAc(b1-2)Man(a1-3)[Fuc(a1-2)Gal(b1-3)[Fuc(a1-4)]GlcNAc(b1-2)Man(a1-6)]Man(b1-4)GlcNAc(b1-4)[Fuc(a1-6)]GlcNAc(b1-4)[Fuc(a1-6)]GlcNAc
# Outline: as §1
# [17] = target: Fuc(a1-2)Gal(b1-3)[Fuc(a1-4)]GlcNAc(b1-3)[Fuc(a1-3)[Gal(b1-4)]GlcNAc(b1-6)]Gal(b1-4)Glc
# Outline: as §1
# [18] = target: Fuc(a1-2)Gal(b1-3)[Fuc(a1-4)]GlcNAc(b1-3)[Gal(b1-4)GlcNAc(b1-6)]Gal(b1-4)Glc
# Outline: as §1
# [19] = target: Fuc(a1-2)Gal(b1-4)Fuc(a1-3)]GlcNAc(b1-2)Man(a1-3)[Fuc(a1-2)Gal(b1-4)[Fuc(a1-3)]GlcNAc(b1-2)Man(a1-6)]Man(b1-4)GlcNAc(b1-4)GlcNAc
# Outline: as §1
# Fuc(a1-2)Gal(b1-4)Glc = target: Fuc(a1-2)Gal(b1-4)Glc
# Outline: as §1
# Fuc(a1-2)Gal(b1-4)Glc6S = target: Fuc(a1-2)Gal(b1-4)Glc6S
# Outline: as §1
# Fuc(a1-2)Gal(b1-4)GlcNAc = target: Fuc(a1-2)Gal(b1-4)GlcNAc
# Outline: as §1
# [20] = target: Fuc(a1-2)Gal(b1-4)GlcNAc(b1-2)Man
# Outline: as §1
# [21] = target: Fuc(a1-2)Gal(b1-4)GlcNAc(b1-2)Man(a1-3)[Fuc(a1-2)Gal(b1-4)GlcNAc(b1-2)Man(a1-6)]Man(b1-4)GlcNAc(b1-4)GlcNAc
# Outline: as §1
# [22] = target: Fuc(a1-2)Gal(b1-4)GlcNAc(b1-2)Man(a1-3)[Fuc(a1-2)Gal(b1-4)GlcNAc(b1-2)Man(a1-6)]Man(b1-4)GlcNAc(b1-4)[Fuc(a1-6)]GlcNAc
# Outline: as §1
# [23] = target: Fuc(a1-2)Gal(b1-4)GlcNAc(b1-2)[Fuc(a1-2)Gal(b1-4)GlcNAc(b1-4)]Man(a1-3)[Fuc(a1-2)Gal(b1-4)GlcNAc(b1-2)Man(a1-6)]Man(b1-4)GlcNAc(b1-4)GlcNAc
# Outline: as §1
# [24] = target: Fuc(a1-2)Gal(b1-4)GlcNAc(b1-3)Gal(b1-4)GlcNAc
# Outline: as §1
binder,measurement,setting,value
B1,glycan array binding signal (z-score),Fuc(a1-2)Gal,1.69
same,glycan array binding signal (z-score),Fuc(a1-2)Gal(b1-3)GalNAc,0.079
same,glycan array binding signal (z-score),[1],-0.105
same,glycan array binding signal (z-score),[2],0.752
same,glycan array binding signal (z-score),[3],-1.02
same,glycan array binding signal (z-score),[4],-0.071
same,glycan array binding signal (z-score),[5],-0.239
same,glycan array binding signal (z-score),Fuc(a1-2)Gal(b1-3)GlcNAc,1.08
same,glycan array binding signal (z-score),[6],3.2
same,glycan array binding signal (z-score),[7],0.162
same,glycan array binding signal (z-score),[8],1.29
same,glycan array binding signal (z-score),[9],-1.72
same,glycan array binding signal (z-score),[10],2.27
same,glycan array binding signal (z-score),[11],-0.152
same,glycan array binding signal (z-score),[12],0.083
same,glycan array binding signal (z-score),[13],-1.03
same,glycan array binding signal (z-score),[14],1.98
same,glycan array binding signal (z-score),[15],0.438
same,glycan array binding signal (z-score),[16],-0.111
same,glycan array binding signal (z-score),[17],-0.196
same,glycan array binding signal (z-score),[18],-1.26
same,glycan array binding signal (z-score),[19],-0.343
same,glycan array binding signal (z-score),Fuc(a1-2)Gal(b1-4)Glc,-1.61
same,glycan array binding signal (z-score),Fuc(a1-2)Gal(b1-4)Glc6S,-1.11
same,glycan array binding signal (z-score),Fuc(a1-2)Gal(b1-4)GlcNAc,-0.178
same,glycan array binding signal (z-score),[20],-0.415
same,glycan array binding signal (z-score),[21],0.648
same,glycan array binding signal (z-score),[22],-1.02
same,glycan array binding signal (z-score),[23],1.64
same,glycan array binding signal (z-score),[24],0.017

# Two neighbouring records already listed, for reference:
binder,measurement,setting,value
B1,glycan array binding signal (z-score),[22],-1.02
same,glycan array binding signal (z-score),[23],1.64

# Source: the supplement of paper PMC8728848
